Literature values, collected in patent US12233147B2, “Method for treating keratin material” (Henkel AG & Co. KGaA, priority 2019, dated 2025).

Conditions: 25° C.

- solubility in water: more than 20 % by weight
SMILES: CCN(Cc1cccc(S(=O)(=O)[O-])c1)c1ccc(C(=C2C=CC(=[N+](CC)Cc3cccc(S(=O)(=O)[O-])c3)C=C2)c2ccccc2S(=O)(=O)[O-])cc1.[Na+].[Na+] [Acid Blue 9]
